Measured values: patent US6908908B2, “Biologically active 4H-benzo [1,4] oxazin-3-ones” (Ortho-McNeil Pharmaceutical, Inc., priority 2000, dated 2005)
For at least one compound, name, drawing or mass did not settle the structure.

Molecular target: T1, PPAR γ (Homo sapiens, UniProt P37231)
T1 construct: Following the challenge of the preadipocytes, cells may be lysed with lysis buffer; endogenous in cells; host or cells: preadipocytes
T1 sequence (P37231 1-505): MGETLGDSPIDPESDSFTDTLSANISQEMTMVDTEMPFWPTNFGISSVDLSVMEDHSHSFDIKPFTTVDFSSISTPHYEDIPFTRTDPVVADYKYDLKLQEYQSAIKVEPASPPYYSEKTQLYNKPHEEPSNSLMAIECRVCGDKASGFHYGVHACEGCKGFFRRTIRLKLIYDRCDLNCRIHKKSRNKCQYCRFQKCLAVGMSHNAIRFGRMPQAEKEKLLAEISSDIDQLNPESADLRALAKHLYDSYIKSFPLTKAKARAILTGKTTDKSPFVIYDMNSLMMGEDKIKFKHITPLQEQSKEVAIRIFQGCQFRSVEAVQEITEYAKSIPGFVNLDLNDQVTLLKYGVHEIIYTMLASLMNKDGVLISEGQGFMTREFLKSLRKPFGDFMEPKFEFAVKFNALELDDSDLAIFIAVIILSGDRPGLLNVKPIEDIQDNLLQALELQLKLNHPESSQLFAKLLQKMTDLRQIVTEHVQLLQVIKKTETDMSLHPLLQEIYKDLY
Experiment: aP2 Assay for Agonist (induction of aP2 mRNA production); also: test concentration or dose not given here
Type: cell-based
Settings: Table 1; fold increase over vehicle in induction of aP2 mRNA production

CCCCCCN1C(=O)C(CCOc2ccccc2CP(=O)(OCC)OCC)Oc2ccccc21 (stereo not shown) [Compound 14, Phosphonic acid, [[2-[2-(4-hexyl-3,4-dihydro-3-oxo-2H-1,4-benzoxazin-2-yl)ethoxy]phenyl]methyl]-, diethyl ester]
Agonist Intrinsic Activity: 1.6
